These are yes or no findings as the source states them, for the method shown. Some binding calls cover weakened binding; strength is not graded here.
Target: T1, standard peptide … (synthetic peptide, C-terminal neo-epitope of collagen type VII alpha 1) (human)
T1 sequence (peptide): GPPGPPGRLV
Assay: competitive ELISA; standard peptide competes with the coated biotin-… for the HRP-labelled antibody

- binding: binds
B1: monoclonal antibody raised against the C-terminal neo-epitope amino acid sequence …-COOH (C7) (antibody, mouse IgG1, kappa, V domains shown)
VH: EVQLQQSGPELVKPGASVKISCKTSGYTFIENTMNWVKQSHGKSLEWIGGINPKIGGSIYNQKFQDKATLTVDKSSSTAYMELRSLTSDDSAVYYCARGIYDEGWHFDVWGAGTTVTVSS
VL: DIVMTQAAFSNPVTLGTSASISCRSSQSLLYSNGITYLYWYLQKPGQSPQLLIYQMSNLASGVPDRFSSSGSGTDFTLRISRVEAEDVGVYYCAQNLELPWTFGGGTKLEIKR
notes: also called monoclonal antibody raised against C7; HRP-labeled monoclonal antibody
